# PubChem BioAssay AID504764, Drosophila RNAi Screening Center | 2011
# Test: 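Genome-wide screen for regulators of Notch-driven gene expression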 (primary screen)
# Cell system: Drosophila Kc167 cells
# Reagent: long dsRNA against Drosophila genes
# Duration: about 5 days (4 days dsRNA, then 24 h after transfection)
# Treatment: transfection of constitutively active membrane-tethered Notch lacking the extracellular domain, read 24 h later
# Measurement: 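Firefly luciferase from an E(spl)m3 reporter with active Notch, plus control-promoter and uninduced reporter wells for normalisation; unnormalised counts, duplicate wells a and b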
# Scale: induced reporter light, run 1, well a and induced reporter light, run 1, well b: higher = more light from the Notch target reporter with active Notch; control promoter light, run 1, well a and control promoter light, run 1, well b: higher = more light from the viral control promoter (cell number, transfection, viability); uninduced reporter light, run 1, well a: higher = more light from the Notch target reporter without active Notch
# Rule for the call: 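Hit if the duplicate-averaged log2 ratio of induced to control-promoter light gives a plate-wise z beyond ±2, or induced to uninduced beyond ±1.8; weak-control or discordant-duplicate wells dropped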
# Calls: active = modifier hit (raised or lowered Notch signal); inactive = not a hit
# The screen tested about 22,000 reagents; this is a random part of those with a known target gene and a result. In the full data, 403 (1.9%) are marked active. 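Unnormalised raw counts per well; ratio z-scores behind the hit calls and whether each hit raises or lowers signal are not deposited.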 Names joined by + are all predicted targets of the reagent. The record does not give: the amount of reagent.
Target gene,DRSC id,"induced reporter light, run 1, well a","induced reporter light, run 1, well b","control promoter light, run 1, well a","control promoter light, run 1, well b","uninduced reporter light, run 1, well a",Outcome
Sec20,DRSC12295,1.00e5,93655,84335,66785,4945,inactive
agt,DRSC12611,95170,1.11e5,93530,69360,7435,inactive
wg,DRSC03636,1.57e5,1.29e5,1.85e5,1.56e5,10125,inactive
CG5823,DRSC15881,1.80e5,1.87e5,2.20e5,2.44e5,18185,inactive
yellow-b,DRSC03639,1.24e5,1.28e5,1.06e5,1.24e5,11015,inactive
mRpS2,DRSC00550,2.56e5,2.36e5,2.72e5,2.51e5,13268,inactive
Pnn,DRSC16415,86310,87855,80035,52495,5795,inactive
Hmgs,DRSC06866,1.24e5,1.30e5,1.09e5,1.10e5,9825,inactive
CG7601,DRSC14131,2.07e5,2.05e5,2.67e5,2.78e5,14578,inactive
CG13868,DRSC06427,1.01e5,88935,1.93e5,1.88e5,8145,inactive
Sec24AB,DRSC06478,1.74e5,1.63e5,1.65e5,1.44e5,12130,inactive
Or92a,DRSC16771,1.32e5,1.59e5,2.38e5,2.01e5,12620,inactive
Orct2,DRSC14613,1.53e5,1.55e5,1.46e5,1.75e5,12220,inactive
Fis1,DRSC07772,1.15e5,1.14e5,1.71e5,1.91e5,5870,inactive
t,DRSC17815,91810,87790,1.25e5,1.54e5,6810,inactive
Abd-B,DRSC14098,2.87e5,2.04e5,2.20e5,2.31e5,16350,inactive
Abd-B,DRSC14337,1.69e5,1.99e5,2.25e5,2.33e5,14570,inactive
TfIIFbeta,DRSC16884,42560,58215,38120,36280,4185,inactive
Srlp,DRSC15890,80555,76785,85915,76015,4392,inactive
CG33111,DRSC14208,1.85e5,1.81e5,2.12e5,2.16e5,17805,inactive
CG33111,DRSC14444,1.43e5,1.52e5,2.13e5,2.06e5,13445,inactive
Wnk,DRSC11813,23110,15340,9270,10975,5180,inactive
CG30031 + deltaTry + gammaTry,DRSC07622,1.35e5,1.25e5,1.72e5,1.77e5,11315,inactive
CG3732,DRSC04410,1.79e5,2.10e5,1.37e5,1.57e5,13555,inactive
sigmar,DRSC04449,1.46e5,2.09e5,1.64e5,1.68e5,14830,inactive
scpr-A + scpr-C + scpr-B,DRSC15715,69295,60295,63960,46790,3728,inactive
trio,DRSC07928,2.41e5,2.26e5,2.55e5,2.40e5,16590,inactive
trio,DRSC08527,53590,49645,32900,29145,9650,inactive
trio,DRSC08740,1.15e5,1.57e5,2.38e5,2.33e5,5565,inactive
Yip1d1,DRSC02166,1.37e5,1.86e5,1.70e5,1.61e5,11695,inactive
CG8314,DRSC07144,1.15e5,1.35e5,2.16e5,2.51e5,9845,inactive
CG10211,DRSC02027,1.22e5,1.24e5,1.90e5,86105,16475,inactive
CG5510,DRSC15823,1.70e5,1.56e5,2.40e5,2.17e5,14035,inactive
Or9a,DRSC18692,1.25e5,97745,1.74e5,2.00e5,7365,inactive
ZAP3,DRSC17852,1.14e5,1.21e5,1.36e5,1.51e5,8860,inactive
ZAP3,DRSC17853,1.21e5,1.17e5,2.24e5,2.50e5,8125,inactive
ZAP3,DRSC18249,1.29e5,1.22e5,2.58e5,1.93e5,8020,inactive
CG2875,DRSC18231,36105,49570,49705,43940,3445,inactive
Prat,DRSC16797,1.31e5,1.30e5,85120,88970,10265,inactive
CG42299 + CG42300,DRSC19680,60675,46965,65465,52230,8032,inactive
CG42299 + CG42300,DRSC19815,84465,50240,77105,58060,10790,inactive
Rap2l,DRSC04646,1.49e5,1.41e5,1.64e5,1.44e5,12842,inactive
CG14238,DRSC14732,1.47e5,98185,2.51e5,1.70e5,13055,inactive
Chrac-16,DRSC20343,96380,85720,1.39e5,1.67e5,9350,inactive
Ptth,DRSC00356,1.18e5,1.05e5,92695,47010,7965,inactive
CG32262,DRSC08165,1.59e5,1.52e5,91245,47915,12260,inactive
CG8870,DRSC16452,2.26e5,2.75e5,2.20e5,2.41e5,16700,inactive
CG34124,DRSC00849,1.15e5,87585,1.44e5,1.28e5,9095,inactive
pasi1,DRSC16299,1.83e5,1.81e5,1.75e5,1.69e5,11810,inactive
pasi1,DRSC22385,,,,,,active

Entries above called active:
Target gene,DRSC id,"induced reporter light, run 1, well a","induced reporter light, run 1, well b","control promoter light, run 1, well a","control promoter light, run 1, well b","uninduced reporter light, run 1, well a",Outcome
pasi1,DRSC22385,,,,,,active
